# The campaign covered roughly 320,000 compounds. About 2,100 (0.66%) were called active. This list was built around the results that the source calls inconclusive (neither active nor inactive); the mix of calls is not that of the screen. The call rests on the fitted dose curve; in most records, active means well fitted inhibition curve with a large enough effect in the signal ratio, with a control signal flat (not every such curve was filed as active); inconclusive means small, poorly fitted or top-dose-only effect, or effect the other way, or a change in a side signal; inactive means flat fitted curve, though single readings scatter; the % refers to the signal ratio. A potency beside an inconclusive call is a rough fit, not a confirmed value.
# Test: qHTS Assay for Lipid Storage Modulators in Drosophila S3 Cells
# Settings: BODIPY lipid droplet fluorescence, 18-24 h, cells fed with added oleic acid; lipid storage change, negative = inhibition: at 46.1 µM (top of the series) unless noted
# Procedure, shortened: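 Drosophila S3 cells got compounds at several concentrations plus oleic acid (400 uM solution). Laser-scanning cytometry with 488 nm excitation read lipid droplets at 500-530 nm and cells at 575-640 nm. Percent activity was relative to 20 uM Triacsin C.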
# On the % scale 0 is the no-effect control and ±100 the full control effect; potency means the concentration at half of the fitted maximal effect.
SMILES,"lipid storage change, negative = inhibition",Potency
Cc1cc(=O)oc2cc(OC(C)C(=O)N3CCCc4ccccc43)ccc12 (configuration not stated),inconclusive: 3.47%,–
COc1cc(OC)cc(C(=O)Nc2cccc3ccccc23)c1,inconclusive: -100%,–
COc1ccc(CNC(=O)COC(=O)C(CCSC)NC(=O)c2ccco2)cc1OC (configuration not stated),–,"inconclusive: 0.0065 µM [falling, full curve]"
Oc1cccc2ccc(/C=C/c3c(F)cccc3Cl)nc12,inconclusive: 23.7% [at 9.22 µM],–
COc1cc(OC)c(NC(=O)CC(=O)Nc2cc(Cl)c(OC)cc2OC)cc1Cl,–,"inconclusive: 29.1 µM [falling, single point]"
CCOC(=O)c1[nH]c(C)c(CN(CCc2ccccc2)S(C)(=O)=O)c1C,inconclusive: -15%,–
O=C(/C=C/c1ccco1)c1ccc(NC(=O)C23CC4CC(CC(C4)C2)C3)cc1,–,active: 16.4 µM
Cc1ccc(S(=O)(=O)N2CCC(=O)N(C(COCc3cccc(C(F)(F)F)c3)C(C)C)CC2)cc1 (configuration not stated),inconclusive: 33.2%,–
CC(NC(=O)Nc1ccc(Cl)c(Cl)c1)C(c1ccccc1)N1CCOCC1 (configuration not stated),inconclusive: 3.56%,–
Cc1sc(NC(=O)Cn2[nH]c(=O)c3ccccc3c2=O)nc1-c1ccccc1,–,"inconclusive: 2.91 µM [activator, full curve, poor fit]"
COc1ccc(CCNC(=O)CSc2nnc(Cc3csc(N)n3)n2C)cc1OC,inconclusive: -3.5%,–
O=C(CCl)Nc1cccc(S(=O)(=O)NC2=NCCC2)c1,–,"inconclusive: 13 µM [falling, partial curve, poor fit]"
COc1cccc(C2CC(C(F)(F)F)n3nc(C(=O)Nc4c(C)n(C)n(-c5ccccc5)c4=O)cc3N2)c1 (configuration not stated),inconclusive: 17.7%,–
Cc1ccccc1NC(=O)Cc1nnc(SCC(=O)c2ccc(Br)cc2)n1C,inconclusive: -9.9%,–
N#CC1=C(N)NC(=S)C(C(N)=O)C1c1ccc(Cl)cc1Cl (configuration not stated),inconclusive: -21.2% [at 9.22 µM],–
CC(=O)c1nc2ccccc2n1S(=O)(=O)c1ccc(C)cc1,inconclusive: 37.8%,–
CCOc1ccc(CN2C(=O)c3ccccc3C2C(=O)NCC2CCCO2)cc1 (configuration not stated),inconclusive: -2.62% [at 9.22 µM],–
CCCNC(=O)C1CC2Cn3c(nc4ccccc43)C2N1C (configuration not stated),–,"inconclusive: 2.59 µM [activator, partial curve]"
O=C(CSc1nncs1)NCc1ccc(F)cc1,inconclusive: 13.6%,–
O=C(CCNC(=O)c1ccccc1)NCc1ccccc1F,–,"inconclusive: 6.51 µM [activator, single point]"
Cc1ccc(Cl)cc1N1CCN(C(=O)c2cc3c(=O)[nH]c4ccccc4c3n2C)CC1,inconclusive: -39%,–
CN(C)CC(C)(C)CNS(=O)(=O)c1ccc(Cl)cc1,inactive: 1.02%,–
O=c1[nH][nH]c(-c2ccccc2O)c1C(C[N+](=O)[O-])c1ccc(Br)cc1 (configuration not stated),inconclusive: -23.4%,–
O=C(NC1CCCCC1)C1CC(O)CN1C(=O)OCc1ccccc1 (configuration not stated),–,"inconclusive: 2.91 µM [activator, partial curve]"

# Some of these compounds in order of molecular weight, smallest number first:
SMILES,"lipid storage change, negative = inhibition",Potency
COc1cc(OC)cc(C(=O)Nc2cccc3ccccc23)c1,inconclusive: -100%,–
CC(=O)c1nc2ccccc2n1S(=O)(=O)c1ccc(C)cc1,inconclusive: 37.8%,–
O=C(CCl)Nc1cccc(S(=O)(=O)NC2=NCCC2)c1,–,"inconclusive: 13 µM [falling, partial curve, poor fit]"

# The list continues.

SMILES,"lipid storage change, negative = inhibition",Potency
Nc1ccccc1Nc1ccncc1[N+](=O)[O-],inconclusive: 40.9%,–
Cc1onc(-c2c(F)cccc2Cl)c1C(=O)Nc1nccs1,–,"inconclusive: 6.51 µM [rising, single point]"
Cc1cnc(NC(=O)CSc2nnc(N)s2)s1,–,"inconclusive: 29.1 µM [falling, single point]"
COc1cccc(N2CC(C(=O)Nc3nnc(SCCC4OCCO4)s3)CC2=O)c1 (configuration not stated),–,"inconclusive: 29.1 µM [activator, single point]"
Cc1cccc(OCC(=O)NCC(=O)N/N=C/c2cccs2)c1,inconclusive: 12.6%,–
Cc1ccc(C)c(S(=O)(=O)NC2CCS(=O)(=O)C2)c1 (configuration not stated),inconclusive: -7.19%,–
COc1ccc(OC)c(N(CC(=O)Nc2ccccc2)S(C)(=O)=O)c1,inconclusive: -2.99%,–
Cc1cccc(NS(=O)(=O)c2ccc(C(=O)N3CCCC3)cc2)c1C,–,"inconclusive: 1.64 µM [rising, full curve, poor fit]"
CSc1nnc(-c2ccco2)n1-c1ccccc1,inconclusive: 32.3%,–
CC(OC(=O)CCCN=C1NS(=O)(=O)c2ccccc21)C(=O)c1ccccc1 (configuration not stated),–,"inconclusive: 29.1 µM [falling, single point]"
C#Cc1cccc(C(=O)N2CCCC(C(=O)c3ccc(OC)cc3C)C2)c1 (configuration not stated),–,"inconclusive: 0.291 µM [falling, partial curve, poor fit]"
CCCCn1c(N)c(N(CCOC)C(=O)COC(=O)COc2cc(C)c(Cl)cc2C(C)C)c(=O)[nH]c1=O,inconclusive,–
O=C(C1CCCN(S(=O)(=O)c2cccc3cccnc23)C1)N1CCN(c2ccccc2F)CC1 (configuration not stated),inconclusive: -13.1%,–
COc1ccc(-c2cn(-c3ccc(C)c(C)c3)c(=S)[nH]2)cc1OC,–,"inconclusive: 29.1 µM [falling, single point]"
COC(=O)c1cc2oc(C)cc2n1CC(=O)Nc1ccc(OC)c(OC)c1OC,inconclusive: 1.07%,–
CCOC(=O)CCNC(=O)N1CCCC(C(=O)c2cccc(OC(C)C)c2)C1 (configuration not stated),–,"inconclusive: 18.4 µM [falling, single point]"
O=C(CNC(=O)c1ccccc1Br)NNC(=O)c1cccs1,inconclusive,–
CC1CCN(Cc2nnnn2CCCC(=O)N(C)C2CCOC2)CC1 (configuration not stated),inconclusive: 21.1%,–
COc1ccc(OC)c(Nc2nc(NCc3ccco3)c3ccccc3n2)c1,–,"inconclusive: 18.4 µM [cytotoxic, single point]"
Cc1ccc(CN2CCN(CC(=O)NCc3ccc(Cl)cc3)C2=O)cc1,–,"inconclusive: 20.6 µM [falling, partial curve]"
S=C(Nc1ccc(Cl)cc1)c1sc(N2CCCCC2)nc1N1CCOCC1,inconclusive: 9.64%,–
COc1ccc(N=C2NN=C(c3c(C)[nH]c4ccccc34)CS2)cc1,inconclusive: 39.2%,–
COc1ccc(CNC(=O)/C=C/c2ccc(S(=O)(=O)NCc3ccco3)cc2)cc1OC,inconclusive: -25.8%,–
